# PubChem BioAssay AID743121, NCATS – 2013
# Aim: 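Partners whose loss is lethal together with topoisomerase I blockade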 (primary screen)
# Cell system: MDA-MB-231 cells, a human breast cancer line
# Reagent: single siRNA against human genes, 20 nM siRNA (0.8 pmol per well)
# Duration: 120 h (drug added 48 h after transfection, read 72 h later)
# Treatment: camptothecin 20 nM (about EC30) for 72 h; vehicle 0.1% DMSO in parallel plates
# Detection: 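CellTiter-Glo ATP signal, scaled to control siRNA as percent viability; sensitisation given as log2 of untreated divided by camptothecin-treated viability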
# Direction: log2 vehicle/camptothecin viability: higher = stronger sensitisation to camptothecin; viability with camptothecin: higher = more viable cells
# Call rule: 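Each gene scored by redundant siRNA activity (RSA) over its individual siRNA ratios; a gene is called active at p < 0.001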
# The whole screen tested about 26,000 reagents; this is a random part of them. 167 of them (0.63%) were called active. 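Calls are per gene from RSA p-values that are not deposited; an individual active-marked siRNA can sensitise only weakly.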 Reagents against one gene are numbered here. Not all columns of the deposit are shown.
target,siRNA no.,log2 vehicle/camptothecin viability,viability with camptothecin (% of control),call
ORC6,1,0.304,35.7,inactive
ORC6,2,-0.346,106,inactive
ORC6,3,-0.244,97.6,inactive
ORC6,4,-0.0172,75.6,inactive
ALOX15,1,-0.0649,93.4,inactive
ALOX15,2,-0.612,48.1,inactive
ALOX15,3,-0.00211,61.3,inactive
SCT,1,-0.215,88.6,inactive
SCT,2,0.114,78.9,inactive
SCT,3,-0.0277,64.3,inactive
MAP3K7,1,2.98,8.39,active
MAP3K7,2,0.368,31.2,active
MAP3K7,3,1.14,36.2,active
MAP3K7,4,1.38,24.5,active
TUBA4B,1,-0.565,45.3,inactive
TUBA4B,2,-0.214,90.2,inactive
TUBA4B,3,-0.167,59.4,inactive
TUBA4B,4,-0.628,57.9,inactive
ANGPTL7,1,-0.178,97.6,inactive
ANGPTL7,2,-0.0575,26.3,inactive
ANGPTL7,3,-0.109,119,inactive
ANGPTL7,4,-0.167,46.8,inactive
GRAP2,1,-0.388,66.3,inactive
GRAP2,2,-0.22,105,inactive
GRAP2,3,-0.545,52.1,inactive
GRAP2,4,-0.351,86.9,inactive
JUN,1,-0.246,69.8,inactive
JUN,2,0.537,18.1,inactive
JUN,3,-0.588,30.8,inactive
JUN,4,-0.395,79.3,inactive
ARTN,1,0.308,59.9,active
ARTN,2,0.429,61.8,active
ARTN,3,0.483,35.7,active
PLXDC1,1,-0.0284,78.9,inactive
PLXDC1,2,-0.287,72.3,inactive
PLXDC1,3,-0.312,117,inactive
PLXDC1,4,0.291,60.4,inactive
TPRA1,1,-0.28,91.7,inactive
TPRA1,2,-0.261,8.88,inactive
TPRA1,3,-0.0912,123,inactive
TPRA1,4,0.0295,94.4,inactive
FAS,1,0.253,36,inactive
FAS,2,-0.417,77.4,inactive
FAS,3,-0.163,85.6,inactive
FAS,4,0.231,72.4,inactive
TRIM4,1,-0.125,88.6,inactive
TRIM4,2,-0.246,94.2,inactive
TRIM4,3,0.601,62.6,inactive
TRIM4,4,-0.193,105,inactive
GUCY1A1,1,0.711,54.5,inactive
GUCY1A1,2,-0.0626,91.4,inactive
GUCY1A1,3,-0.472,90.1,inactive
GUCY1A1,4,-0.468,65.1,inactive
ZNF280B,1,-0.219,62.8,inactive
ZNF280B,2,-0.405,84.1,inactive
ZNF280B,3,-0.259,110,inactive
ZNF280B,4,-0.022,79.7,inactive
GRID1,1,-0.0873,109,inactive
GRID1,2,-0.2,110,inactive
GRID1,3,-0.233,55.1,inactive
GRID1,4,0.287,43.3,inactive
UCP2,1,1.04,18.9,inactive
UCP2,2,0.218,70.2,inactive
UCP2,3,-0.21,106,inactive
UCP2,4,-0.206,98.1,inactive
RPS6KA1,1,-0.624,79.8,inactive
RPS6KA1,2,-0.252,95.1,inactive
RPS6KA1,3,-0.494,94.4,inactive
RPS6KA1,4,-0.0795,86.3,inactive

Single entries from the list.
Entry of GUCY1A1 #4 in “call”: inactive
Entry for TUBA4B #3 in “log2 vehicle/camptothecin viability”: -0.167
Under “log2 vehicle/camptothecin viability”, ANGPTL7 #1 is entered as -0.178
TPRA1 #1, call: inactive
ORC6 #1, call: inactive
Result of GUCY1A1 #3 under “log2 vehicle/camptothecin viability”: -0.472
